Drawing on paper PMC11442835, this text covers binding for 1 substance.

Sequences of proteins named here, by UniProt entry; tags and fusion partners are left off.
UniProt O94972: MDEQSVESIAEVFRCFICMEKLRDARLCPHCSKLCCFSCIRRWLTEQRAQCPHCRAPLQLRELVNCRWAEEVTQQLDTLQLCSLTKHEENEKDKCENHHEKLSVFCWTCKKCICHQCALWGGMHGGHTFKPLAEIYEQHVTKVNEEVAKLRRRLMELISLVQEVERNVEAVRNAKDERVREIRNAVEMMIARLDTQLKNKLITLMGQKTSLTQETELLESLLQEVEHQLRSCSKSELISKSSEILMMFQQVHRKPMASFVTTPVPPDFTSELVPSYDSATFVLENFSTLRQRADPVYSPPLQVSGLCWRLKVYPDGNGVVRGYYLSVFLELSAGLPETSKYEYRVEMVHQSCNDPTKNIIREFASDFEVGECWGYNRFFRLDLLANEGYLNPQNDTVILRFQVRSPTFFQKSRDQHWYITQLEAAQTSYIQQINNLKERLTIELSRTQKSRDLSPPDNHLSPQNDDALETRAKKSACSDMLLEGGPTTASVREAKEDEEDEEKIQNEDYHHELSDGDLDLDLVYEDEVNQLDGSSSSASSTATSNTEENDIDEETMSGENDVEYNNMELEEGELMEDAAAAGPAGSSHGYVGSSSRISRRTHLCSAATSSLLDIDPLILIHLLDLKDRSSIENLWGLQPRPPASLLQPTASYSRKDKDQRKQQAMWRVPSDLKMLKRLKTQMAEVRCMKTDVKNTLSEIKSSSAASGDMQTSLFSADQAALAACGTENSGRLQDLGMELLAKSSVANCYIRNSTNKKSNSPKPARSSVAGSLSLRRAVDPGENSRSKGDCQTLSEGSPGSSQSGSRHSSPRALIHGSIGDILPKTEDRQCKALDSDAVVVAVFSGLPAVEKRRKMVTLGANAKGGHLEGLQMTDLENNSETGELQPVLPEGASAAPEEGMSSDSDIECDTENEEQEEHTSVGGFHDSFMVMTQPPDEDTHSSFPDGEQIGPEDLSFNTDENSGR
UniProt Q8TAQ2: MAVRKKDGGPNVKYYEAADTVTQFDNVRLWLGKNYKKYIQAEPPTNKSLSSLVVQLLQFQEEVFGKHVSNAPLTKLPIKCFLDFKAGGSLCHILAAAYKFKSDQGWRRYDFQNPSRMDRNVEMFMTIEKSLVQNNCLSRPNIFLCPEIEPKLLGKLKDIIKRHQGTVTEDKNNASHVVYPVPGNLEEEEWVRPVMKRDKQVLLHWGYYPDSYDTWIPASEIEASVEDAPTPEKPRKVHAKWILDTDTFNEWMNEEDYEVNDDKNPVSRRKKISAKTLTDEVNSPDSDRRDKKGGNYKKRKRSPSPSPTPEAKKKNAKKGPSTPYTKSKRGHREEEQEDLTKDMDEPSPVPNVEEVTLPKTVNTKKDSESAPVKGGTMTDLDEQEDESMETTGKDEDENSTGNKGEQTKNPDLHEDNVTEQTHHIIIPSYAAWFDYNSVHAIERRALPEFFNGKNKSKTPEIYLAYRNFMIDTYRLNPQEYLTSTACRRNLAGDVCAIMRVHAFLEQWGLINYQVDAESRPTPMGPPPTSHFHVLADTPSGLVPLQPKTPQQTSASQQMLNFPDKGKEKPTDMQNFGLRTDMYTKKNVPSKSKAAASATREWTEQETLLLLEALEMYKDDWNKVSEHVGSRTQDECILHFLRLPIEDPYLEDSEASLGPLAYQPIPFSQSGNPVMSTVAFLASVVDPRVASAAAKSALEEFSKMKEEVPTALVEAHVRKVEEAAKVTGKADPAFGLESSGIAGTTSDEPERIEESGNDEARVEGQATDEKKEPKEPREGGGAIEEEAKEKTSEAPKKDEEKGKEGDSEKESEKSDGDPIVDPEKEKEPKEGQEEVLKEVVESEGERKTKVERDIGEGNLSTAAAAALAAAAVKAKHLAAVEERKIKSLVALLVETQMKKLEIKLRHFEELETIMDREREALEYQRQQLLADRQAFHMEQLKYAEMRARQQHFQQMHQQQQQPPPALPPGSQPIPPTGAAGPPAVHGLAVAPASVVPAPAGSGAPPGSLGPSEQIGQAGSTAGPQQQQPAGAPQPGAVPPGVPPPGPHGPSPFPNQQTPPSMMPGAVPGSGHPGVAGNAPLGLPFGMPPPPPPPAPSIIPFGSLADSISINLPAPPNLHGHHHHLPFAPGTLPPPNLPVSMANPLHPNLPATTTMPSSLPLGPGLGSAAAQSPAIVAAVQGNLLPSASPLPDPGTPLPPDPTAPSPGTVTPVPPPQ

No constants are given. Whether binding was seen depends on the method and setting. Binding seen in cells or lysates may run through a third protein. Some binding calls cover weakened binding; strength is not graded here.

The test deals with Tripartite motif-containing 37 (TRIM37) (human (RCC cell lines; the cell line of the Co-IP is not stated)) (UniProt O94972). The test can be described thus: co-IP; Co-IP from fresh cell protein with antibody on protein A/G magnetic beads (antibody and beads at 4 °C overnight), IP buffer washes, eluted proteins analysed by western blot.

For the substance SMARCC2 (from UniProt Q8TAQ2 1-1214), the binding entry is recorded as “binds”.
